Laboratory results: PubChem BioAssay AID1259307 (Sanger Institute, 2017)
Here is a random part of 794 reagents tested. In the full data, 15 (1.9%) are marked active. 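Calls reflect lethality without any drug; synergy scores did not enter the calls.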 No viability above 1 is reported: the scale is capped. Further read-outs or replicates are left out here. Not given: the amount of reagent, the time to read-out.

Screen: 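Identify kinases needed for SW620 growth or enhancing BYL719, cetuximab or trametinib effects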 (primary screen)
Cell system: SW620 colorectal cancer cells
Reagents: siRNA pool against human genes
Challenge: anchor drugs BYL719 at 1 µM, cetuximab at 5 µg/ml or trametinib at 10 nM, each beside a DMSO vehicle arm
Measurement: 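Cell viability in each well relative to non-targeting controls, averaged over replicates and turned into a robust z-score; synergy with BYL719 (1 µM), cetuximab (5 µg/ml), trametinib (10 nM) versus DMSO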
Direction: viability robust z-score, no drug and viability vs control, no drug: higher = more viable cells
Active means: 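a knock-down counts as lethal alone if its drug-free robust viability z-score is lower than -3, regardless of synergy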
Calls: active = essential (lethal alone); inactive = no change alone

viability robust z-score, no drug	viability vs control, no drug	outcome	Gene
0.487	0.977	inactive	CDKN1C
-3.93	0.57	active	CDK11A
-3.03	0.652	active	PCK1
-0.707	0.867	inactive	PAK6
-0.367	0.898	inactive	MINK1
-0.116	0.921	inactive	DGKB
0.242	0.954	inactive	PIK3R4
0.736	1	inactive	INSRR
0.736	1	inactive	CSK
-0.433	0.892	inactive	IKBKG
0.44	0.973	inactive	SMAD4
0.471	0.976	inactive	PTK2
0.736	1	inactive	PRKG2
0.651	0.992	inactive	CDK3
0.736	1	inactive	ROR2
0.736	1	inactive	PIM2
0.736	1	inactive	CASP8
0.288	0.959	inactive	MAP3K5
0.564	0.984	inactive	AKT2
-0.539	0.882	inactive	ELF3

Part of the list above, reformatted.
| viability robust z-score, no drug | viability vs control, no drug | outcome | Gene |
| --- | --- | --- | --- |
| 0.736 | 1 | inactive | CASP8 |
| 0.288 | 0.959 | inactive | MAP3K5 |
| 0.564 | 0.984 | inactive | AKT2 |
